# Measured values as given in paper PMC5053635.
# Chains of the proteins cited; added tags and fusions are not shown. Lines headed by an entry give the natural chain unless they say otherwise; changes in a name come on top. A line that says so, or that is headed by a name, gives the form on record, which may keep a tag or linker.
# CrkI (P46108, form named): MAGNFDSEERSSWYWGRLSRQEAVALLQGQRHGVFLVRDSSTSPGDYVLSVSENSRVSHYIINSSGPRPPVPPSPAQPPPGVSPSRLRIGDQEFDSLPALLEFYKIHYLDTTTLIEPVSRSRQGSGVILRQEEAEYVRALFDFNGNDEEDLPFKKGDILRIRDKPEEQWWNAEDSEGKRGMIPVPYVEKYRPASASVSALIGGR
# UniProt P49023: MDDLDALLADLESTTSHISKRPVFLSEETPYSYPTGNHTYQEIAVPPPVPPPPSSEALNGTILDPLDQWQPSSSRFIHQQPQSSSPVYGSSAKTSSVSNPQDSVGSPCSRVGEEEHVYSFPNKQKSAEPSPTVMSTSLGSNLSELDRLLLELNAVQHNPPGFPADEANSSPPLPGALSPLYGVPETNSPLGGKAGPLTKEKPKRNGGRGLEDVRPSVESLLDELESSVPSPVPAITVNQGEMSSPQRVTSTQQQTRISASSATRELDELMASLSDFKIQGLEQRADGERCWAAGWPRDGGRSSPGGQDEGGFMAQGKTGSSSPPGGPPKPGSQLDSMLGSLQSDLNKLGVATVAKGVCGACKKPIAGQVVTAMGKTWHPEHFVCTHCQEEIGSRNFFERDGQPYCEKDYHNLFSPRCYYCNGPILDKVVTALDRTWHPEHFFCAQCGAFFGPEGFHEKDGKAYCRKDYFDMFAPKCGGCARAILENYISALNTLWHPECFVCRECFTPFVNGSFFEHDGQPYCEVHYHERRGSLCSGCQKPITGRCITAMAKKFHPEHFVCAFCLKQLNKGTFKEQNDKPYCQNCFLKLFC
# Results are given in words; binding and its absence hold for the method and conditions named. Binding seen in cells or lysates may run through a third protein. Some results given as binding are weak or reduced against the parent protein; the word gives no strength.
# Target: CrkI (human) (UniProt P46108)
# Test: co-IP; lysates of CrkI-expressing A549 cells; lysis buffer 0.5% NP-40, 10 mM Tris-HCl pH 7.4, 150 mM NaCl, 1 mM EDTA, 50 mM NaF, 1 mM Na3VO4; immunoprecipitation and immunoblotting; which protein was precipitated is not told
substance,measurement,value
paxillin (from UniProt P49023 1-591),binding,binds
